# Measurements published in PubChem BioAssay AID493014 (National Center for Advancing Translational Sciences (NCATS), 2011).
# The other results are listed elsewhere or left out. Shown are side measurements of this screen, not its main read-out; they come without a call. The list favours compounds with an active or inconclusive main result. Words in brackets tell the shape of the fitted curve; partial curves, single points and poor fits give uncertain potencies.
# Test: qHTS Assay to Find Inhibitors of Chronic Active B-Cell Receptor Signaling
# Settings: ABC-DLBCL IkBa-CBG/CBR reporter, luminescence ratio (green luciferase fused to IkBa over red control in TMD8 lymphoma cells), 4 h
# In short: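 TMD8 ABC-DLBCL cells carrying doxycycline-inducible green luciferase fused to IkappaBalpha plus unfused red luciferase were exposed to compounds (up to 46 uM) for 4 hrs at 37C. Activity came from the overlap-corrected green/red luminescence ratio.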
# [1] = measured here: CBR red luminescence, cell number
SMILES,AC50 [1],AC50 (measured here: IkBa-CBG green luminescence)
Cn1cc(S(=O)(=O)N2CCCC2)cc1C(=O)N1CCN(c2ccccc2)CC1,"14.1 µM [rising, single point]",–
Cc1nnc(N/N=C/c2ccc([N+](=O)[O-])cc2)n1N,"35.5 µM [rising, single point]",–
CCC(CO)n1c(SCc2cc([N+](=O)[O-])cc3c2OCOC3)nc2ccccc2c1=O (configuration not stated),"23.1 µM [falling, single point]",–
C(=C/c1nccc2c1[nH]c1ccccc12)/c1ccc2c(c1)OCO2,"17.8 µM [falling, single point]",–
Cc1ccc(-c2c(C(=O)N/N=C/c3cccc(Cl)c3)nnn2-c2nonc2N)cc1,"10 µM [rising, partial curve, poor fit]",–
O=C(NCCNC(=O)c1cc(OCC(F)(F)F)ccc1OCC(F)(F)F)Nc1cccc(C(F)(F)F)c1,"35.5 µM [falling, single point]",–
O=C(CNC(=S)N(CCCN1CCOCC1)Cc1cccs1)N1CCCCCC1,"0.794 µM [rising, full curve, poor fit]",–
C=CCn1c(SCC(=O)Nc2cccc(C(=O)OC)c2)nnc1C(C)NC(=O)c1cccs1 (configuration not stated),"9.2 µM [falling, partial curve]",–
CCN(CC)C(=O)C1CCCN(C(=S)Nc2cccc3ccccc23)C1 (configuration not stated),"25.9 µM [falling, single point]",–
CC(Oc1ccc(Cl)cc1)C(=O)Nc1cccc(S(=O)(=O)N2CCOCC2)c1 (configuration not stated),"0.13 µM [rising, full curve, poor fit]",–
COc1ccc(N2CCN(C(=O)c3cc4ccccc4o3)CC2)cc1,"3.16 µM [rising, single point]",–
Nc1nc2ccccc2n1C(=O)c1cccs1,"1.78 µM [falling, full curve]",–
O=C(NN=C1CCCCCC1)c1cccs1,"20 µM [falling, single point]",–
N#CCCCN1C(=O)C(=C(C#N)C#N)c2ccccc21,"35.5 µM [falling, single point]",–
Nc1nc(-c2cccnc2)nn1C(=O)c1ccccc1Cl,"10 µM [falling, partial curve, poor fit]",–
O=c1oc(Nc2ccc(F)cc2)nc2ccccc12,"2.24 µM [falling, full curve, poor fit]",–
O=S(=O)(NCC(c1cccs1)S(=O)(=O)c1ccccc1)c1ccccc1 (configuration not stated),"3.55 µM [falling, partial curve]",–
CC(OC(=O)c1cc2sccc2n1C)C(=O)NCc1ccc(F)cc1 (configuration not stated),"5.17 µM [rising, partial curve, poor fit]",–
CC(C)(C)c1cc(NC(=O)CSc2nnc(NCc3ccccc3)s2)n(-c2ccccc2)n1,"14.6 µM [falling, single point]",–
CC1CCc2c(sc(NC(=S)NC(=O)c3ccccc3)c2C#N)C1 (configuration not stated),"6.31 µM [rising, single point]",–
CCCOc1c(OC)cccc1C1CC(=O)Nc2cc3c(cc21)OCCO3 (configuration not stated),"11.2 µM [rising, partial curve]","35.5 µM [falling, single point]"

# Record cards, as listed above. Values in the order: AC50 [1]	AC50 (measured here: IkBa-CBG green luminescence)
# `COc1ccc(N2CCN(C(=O)c3cc4ccccc4o3)CC2)cc1` as listed: 3.16 µM [rising, single point]	–
# `O=S(=O)(NCC(c1cccs1)S(=O)(=O)c1ccccc1)c1ccccc1` (configuration not stated) as listed: 3.55 µM [falling, partial curve]	–

# (list continues)

SMILES,AC50 [1],AC50 (measured here: IkBa-CBG green luminescence)
CCO[C@H]1OC(C(=O)NCc2nc3ccccc3[nH]2)=C[C@@H](c2ccc(C(F)(F)F)cc2)[C@@H]1CCCO,"35.5 µM [falling, single point]",–
COc1ccc(OC)c(C(=O)N2CCC(n3nccc3NC(=O)CC(C)C)CC2)c1,"35.5 µM [rising, single point]",–
Cc1ccc2nc(-c3cccnc3)c(NC3CCCCC3)n2c1,"10.3 µM [falling, partial curve, poor fit]",–
O=C(CCc1ccccc1)Nc1cccc(NC(=O)CCc2ccccc2)c1,"1.64 µM [falling, full curve]",–
c1ccc(OCCOCCSc2ncccn2)cc1,"11.2 µM [falling, partial curve]",–
Cc1c(NC(=O)CN2C(=O)NC(C)(c3ccccc3)C2=O)c(=O)n(-c2ccccc2)n1C (configuration not stated),"0.231 µM [rising, partial curve]",–
Cc1cnc(C(=O)OC(C)C(=O)Nc2ccc3c(c2)OCCO3)cn1 (configuration not stated),"0.794 µM [falling, full curve]",–
O=C(Nc1cccc(Cl)c1)N1CC2CCCN2c2ccccc21 (configuration not stated),"11.2 µM [rising, single point]",–
CC1(C)CC(=O)C2=C(C1)N(c1ccc(F)cc1)C(N)=C(C#N)C2c1cccs1 (configuration not stated),"3.16 µM [falling, full curve, poor fit]",–
CC(C)CNC(=O)C1CCN(Cc2ccc(OCc3ccccc3)cc2)CC1,"4.61 µM [rising, single point]",–
COc1ccc(N2CC(C(=O)OCC(=O)Nc3cccc(C)c3C)CC2=O)cc1 (configuration not stated),"35.5 µM [rising, partial curve, poor fit]",–
CN(C)CCCN(C(=O)c1ccc(S(=O)(=O)N2CCCC2)cc1)c1nc2ccc(Br)cc2s1,"35.5 µM [falling, single point]",–
CCOC(=O)C1=C(CC)Nc2ccccc2N=C1NC(=O)Nc1ccc(Cl)c(Cl)c1,"29.1 µM [falling, single point]",–
COc1ccc(N=Cc2c(O)[nH]c3ccccc23)cc1OC,"14.6 µM [falling, single point]",–
Cc1nc(N2CCN(C(=O)c3ccco3)CC2)nc2c1C(=O)CC(C)C2 (configuration not stated),"6.31 µM [rising, single point]",–
CC(=O)c1c(C)[nH]c(C(=O)OCc2nnc(-c3ccccc3)o2)c1C,"0.517 µM [rising, full curve, poor fit]",–
COc1ccc(-c2cc(C(=O)Nc3ccccc3F)on2)cc1,"1.41 µM [falling, full curve]",–
COC(=O)c1ccccc1NC(=O)c1cccc(NC(=O)c2ccc(Br)o2)c1C,"0.082 µM [falling, full curve, poor fit]",–
CCOC(=O)c1cc(-c2ccc(C)cc2)n(CCCC(=O)Nc2cc(C)ccc2C)c1,"1.26 µM [rising, partial curve, poor fit]",–
CCOc1ccccc1NC1=C(Cl)C(=O)N(c2ccc(OC)cc2)C1=O,"23.1 µM [falling, single point]",–
